From PubChem BioAssay record AID1224904 (Broad Institute, 2016).

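Selective DUX4 reporter inhibition in doxycycline-induced 293T-iDUX4 cells, scored as Gaussia percent activity minus Italica percent activity, after a 24-hour treatment.
The test concentration is not given here.
Percent difference between the Gaussia and Italica channels; more negative values mean more selective suppression of the DUX4 reporter, and higher values mean less activity.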

Values are in %.
The controls that fix the scale are not given here.
Common to all entries: measured here: selective DUX4 reporter inhibition.
Part of the compounds only, not a random draw; the main read-out is not listed here.

* O=C(c1ccccc1F)N1CC(=O)N2[C@H](CO)[C@@H](c3ccc(C#Cc4ccccc4)cc3)[C@@H]2C1 : Gaussia minus Italica difference -10.07%
* COc1ccc(C#Cc2ccc3c(c2)[C@H]2[C@H](CCN2C(=O)c2ccccc2F)[C@H](CO)N3C)cc1 : Gaussia minus Italica difference -9.569%
* O=C(Nc1ccc(F)cc1)N1CC(=O)N2[C@H](CO)[C@H](c3ccc(C#Cc4cccnc4)cc3)[C@@H]2C1 : Gaussia minus Italica difference -17.17%
* CCCC#Cc1ccc([C@H]2[C@@H](CO)N3CCCCN(C(=O)c4ccc5c(c4)OCO5)C[C@H]23)cc1 : Gaussia minus Italica difference 7.008%
* OC[C@@H]1Nc2ccc(-c3cccc(F)c3)cc2[C@@H]2[C@H]1CCN2Cc1ccc(F)cc1 : Gaussia minus Italica difference -20.38%
* COc1ccc2c3c([nH]c2c1)[C@@H](CO)N(C(=O)c1cccc(F)c1)CC31CN(S(=O)(=O)c2cccs2)C1 : Gaussia minus Italica difference 17.62%
* COc1ccc(-c2ccc3c(c2)[C@H]2[C@H](CCN2C(=O)C2CCCCC2)[C@H](CO)N3C)cc1 : Gaussia minus Italica difference 14.82%
* N#C[C@@H]1[C@@H](c2ccccc2C2=CCCCC2)[C@H](CO)N1S(=O)(=O)c1ccccc1 : Gaussia minus Italica difference 18.29%
* O=S(=O)(c1cccs1)N1CCCCN2[C@H](CO)[C@@H](c3ccc(Br)cc3)[C@@H]2C1 : Gaussia minus Italica difference -7.427%
* COc1ccc(-c2ccc3c(c2)[C@@H]2[C@@H](CCN2C(=O)C2CCCCC2)[C@@H](CO)N3C)cc1 : Gaussia minus Italica difference 6.421%
* COc1ccc(CN2C[C@@H](C)[C@H](OC)CN(C)C(=O)c3cc(NC(=O)c4nc5ccccc5s4)ccc3OC[C@H]2C)cc1 : Gaussia minus Italica difference -20.15%
* COc1ccc2c3c([nH]c2c1)[C@H](CO)N(Cc1ccccc1F)CC31CN(C(=O)C2CCCC2)C1 : Gaussia minus Italica difference -14.59%
* COc1ccc(S(=O)(=O)N[C@@H]2CC[C@@H](CCNC(=O)Cc3ccccn3)O[C@@H]2CO)cc1 : Gaussia minus Italica difference -1.885%
* CN(C)C(=O)c1cccc(-c2ccc3c(c2)[C@@H]2[C@@H](CCN2C(=O)C2CCOCC2)[C@H](CO)N3)c1 : Gaussia minus Italica difference -9.162%
* O=S(=O)(c1ccc(F)cc1)N1CCCCN2[C@H](CO)[C@@H](c3ccc(-c4cncnc4)cc3)[C@H]2C1 : Gaussia minus Italica difference -18.54%
* O=C(c1ccc2c(c1)OCO2)N1CC(=O)N2[C@H](C1)[C@@H](c1ccc(C#Cc3ccccc3)cc1)[C@@H]2CO : Gaussia minus Italica difference 9.658%
* N#C[C@H]1[C@H](c2ccc(-c3ccccc3F)cc2)[C@H](CO)N1C(=O)C1CCC1 : Gaussia minus Italica difference -5.29%
* COc1cccc(C(=O)Nc2ccc3c(c2)OC[C@@H](C)N(CCc2ccccc2)C[C@@H](C)[C@@H](OC)CN(C)C3=O)c1 : Gaussia minus Italica difference -5.899%
* COc1ccc2c3c(n(C)c2c1)[C@@H](CO)N(C(=O)C1CC1)CC31CN(Cc2ccccc2OC)C1 : Gaussia minus Italica difference 15.65%
* COc1ccc(S(=O)(=O)N2CCC3(CC2)CN(Cc2ccncc2)[C@H](CO)c2[nH]c4cc(OC)ccc4c23)cc1 : Gaussia minus Italica difference 3.262%
* O=C(Cc1cccnc1)N1CC(=O)N2[C@H](CO)[C@@H](c3ccc(-c4cccc(F)c4)cc3)[C@@H]2C1 : Gaussia minus Italica difference -4.425%
* O=C(C[C@@H]1CC[C@@H]2[C@H](COC[C@H](O)CN2Cc2cc(F)ccc2F)O1)NCc1ccc(Cl)cc1 : Gaussia minus Italica difference -11.07%
* Cc1ccc(-c2ccc([C@H]3[C@@H](CO)N4CCCCN(S(=O)(=O)c5ccccc5C)C[C@@H]34)cc2)cc1 : Gaussia minus Italica difference -2.626%
* C[C@H]1CN([C@@H](C)CO)C(=O)c2ccccc2-c2ccccc2CO[C@H]1CN(C)S(=O)(=O)c1ccc(Cl)cc1 : Gaussia minus Italica difference 11.67%
* Cc1ccc(-c2ccc([C@@H]3[C@@H](CO)N4C(=O)CN(C(=O)Nc5cccc(F)c5)C[C@@H]34)cc2)cc1 : Gaussia minus Italica difference 7.179%
* C[C@H]1CN([C@@H](C)CO)C(=O)c2c(c3ccccc3n2C)-c2ccccc2CO[C@@H]1CN(C)S(=O)(=O)c1ccc(Cl)cc1 : Gaussia minus Italica difference -3.542%
* COc1cccc(CN2[C@H](CO)[C@@H](c3ccccc3)C23CN(Cc2ccccc2OC)C3)c1 : Gaussia minus Italica difference -16.44%
* O=C(c1cccc(F)c1)N1CCCCN2[C@H](CO)[C@H](c3ccc(/C=C/c4ccccc4)cc3)[C@@H]2C1 : Gaussia minus Italica difference -7.382%
* O=C(Nc1ccc2c(c1)[C@@H]1C[C@H](CC(=O)N3CCc4ccccc4C3)O[C@H](CO)[C@@H]1O2)c1ccc2c(c1)OCO2 : Gaussia minus Italica difference -10.6%
* O=C(C[C@H]1CC[C@@H](NC(=O)Nc2cc(F)ccc2F)[C@@H](CO)O1)Nc1ccc(-c2ccccc2)cc1 : Gaussia minus Italica difference -23.62%
* O=S(=O)(c1ccccc1)N1CC2(C1)[C@@H](c1ccccc1)[C@@H](CO)N2CCC(F)(F)F : Gaussia minus Italica difference -3.591%
* COc1ccc2c3c(n(C)c2c1)[C@@H](CO)N(CC1CC1)CC31CN(C(=O)Nc2ccc(F)cc2F)C1 : Gaussia minus Italica difference -4.673%
* COc1ccc(CNC(=O)N(C)C[C@@H]2OCc3ccccc3-c3c(n(C)c4ccccc34)C(=O)N([C@@H](C)CO)C[C@@H]2C)cc1 : Gaussia minus Italica difference 5.251%

3 of the entries, repeated:

{"structure": "N#C[C@H]1[C@H](c2ccc(-c3ccccc3F)cc2)[C@H](CO)N1C(=O)C1CCC1", "Gaussia minus Italica difference (%)": "-5.29"}
{"structure": "O=S(=O)(c1cccs1)N1CCCCN2[C@H](CO)[C@@H](c3ccc(Br)cc3)[C@@H]2C1", "Gaussia minus Italica difference (%)": "-7.427"}
{"structure": "COc1ccc(S(=O)(=O)N2CCC3(CC2)CN(Cc2ccncc2)[C@H](CO)c2[nH]c4cc(OC)ccc4c23)cc1", "Gaussia minus Italica difference (%)": "3.262"}